Results of single-concentration screens

Chains of the proteins cited; added tags and fusions are not shown. Residues count along the entry.
UniProt P9WPC5, whole entry: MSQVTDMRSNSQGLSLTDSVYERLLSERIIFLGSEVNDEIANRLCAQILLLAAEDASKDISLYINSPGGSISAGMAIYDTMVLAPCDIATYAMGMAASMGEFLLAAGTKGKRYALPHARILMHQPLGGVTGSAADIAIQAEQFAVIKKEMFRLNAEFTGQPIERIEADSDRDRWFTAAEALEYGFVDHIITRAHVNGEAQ
UniProt P9WPC3, whole entry partner: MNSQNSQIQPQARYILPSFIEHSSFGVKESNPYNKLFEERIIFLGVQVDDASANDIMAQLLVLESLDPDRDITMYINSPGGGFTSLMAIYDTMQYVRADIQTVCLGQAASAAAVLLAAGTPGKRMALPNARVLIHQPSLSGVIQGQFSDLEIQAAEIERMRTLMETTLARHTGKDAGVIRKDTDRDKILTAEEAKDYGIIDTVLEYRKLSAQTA
UniProt P9WFT3, whole entry: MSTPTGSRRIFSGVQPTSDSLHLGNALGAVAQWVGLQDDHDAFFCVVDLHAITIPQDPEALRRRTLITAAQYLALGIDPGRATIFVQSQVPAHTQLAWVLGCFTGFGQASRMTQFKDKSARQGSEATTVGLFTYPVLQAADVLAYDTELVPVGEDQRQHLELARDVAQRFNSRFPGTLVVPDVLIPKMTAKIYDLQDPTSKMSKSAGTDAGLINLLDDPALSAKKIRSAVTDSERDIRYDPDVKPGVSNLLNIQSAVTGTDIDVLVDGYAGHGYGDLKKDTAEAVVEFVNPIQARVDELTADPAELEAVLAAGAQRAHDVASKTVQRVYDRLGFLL
UniProt Q8IDJ8, 1-583: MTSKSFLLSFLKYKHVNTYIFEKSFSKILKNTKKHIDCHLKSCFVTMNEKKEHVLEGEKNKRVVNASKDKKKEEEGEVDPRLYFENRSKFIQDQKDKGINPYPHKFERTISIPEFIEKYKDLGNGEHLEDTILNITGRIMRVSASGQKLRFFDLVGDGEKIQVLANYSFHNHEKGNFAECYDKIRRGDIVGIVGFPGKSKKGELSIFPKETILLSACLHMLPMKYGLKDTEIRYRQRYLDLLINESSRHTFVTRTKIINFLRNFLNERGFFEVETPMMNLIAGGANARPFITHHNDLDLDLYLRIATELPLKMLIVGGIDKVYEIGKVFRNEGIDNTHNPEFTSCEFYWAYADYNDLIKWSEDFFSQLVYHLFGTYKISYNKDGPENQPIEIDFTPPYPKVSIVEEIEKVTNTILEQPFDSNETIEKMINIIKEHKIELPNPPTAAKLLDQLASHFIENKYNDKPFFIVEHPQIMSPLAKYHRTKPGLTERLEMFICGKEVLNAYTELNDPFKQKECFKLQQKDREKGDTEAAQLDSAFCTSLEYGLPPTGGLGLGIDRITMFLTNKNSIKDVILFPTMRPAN

ClpP1P2: 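Protease assay of ClpP1P2, read by the AMC dye that it sets free. Target: ClpP1P2, Mycobacterium tuberculosis (UniProt P9WPC5 and UniProt P9WPC3). Tested at 50 µM. Higher reads as stronger inhibition, judged from the few compounds that gave an IC50. Most other retested compounds had strongly negative values. Of about 69,000 compounds tested this way, about 10 (0.015%) reached 50% or more in at least one test.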
MtTrpRS: 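Tryptophan-tRNA ligase, Mycobacterium tuberculosis (UniProt P9WFT3). Enzyme assay of tryptophanyl-tRNA synthetase; the read-out is not stated. Concentration: 10 µM. Higher most likely means stronger inhibition; the record gives no direction and few retests gave an IC50. Size under these conditions: about 65,000 compounds, about 64 of them at 50% or above in at least one test.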
PfKRS1: 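Lysine-tRNA ligase, Plasmodium falciparum 3D7 (UniProt Q8IDJ8). Enzyme assay of the cytosolic lysyl-tRNA synthetase in 384-well plates, read by luminescence. Tested at 30 µM. Higher reads as stronger inhibition, judged from the few compounds that gave an IC50. Size under these conditions: about 69,000 compounds, about 49 of them at 50% or above in at least one test.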

Values are the deposited “Percent Effect”, in %.
How 0% and 100% were set is not recorded. Most values in the screen are low, and negative values occur.
The compounds are a random part of those screened.

{"smiles": "CC(=O)N1CCC(c2nccnc2Nc2ncc(C)s2)CC1", "ClpP1P2": 1.655, "PfKRS1": 3.128}
{"smiles": "COc1ccc2cc(C3CN(C(=O)COC(C)C)CCO3)ccc2c1", "stereo": "stereo not shown", "ClpP1P2": -22.3, "MtTrpRS": -4.782, "PfKRS1": 3.537}
{"smiles": "CC(C)c1nnc2n1CCN(C(=O)c1cn(-c3ccccc3)nn1)C2", "ClpP1P2": -11.82, "MtTrpRS": 2.532, "PfKRS1": -22.13}
{"smiles": "N#Cc1nccnc1NC1CCN(c2ccccc2Br)C1", "stereo": "stereo not shown", "ClpP1P2": 1.905, "MtTrpRS": 9.349, "PfKRS1": 1.913}
{"smiles": "CN1CC(Oc2ccc(Cl)cc2)=NC(SCC(=O)Nc2ccccc2)=N1", "ClpP1P2": 4.566, "MtTrpRS": 7.83, "PfKRS1": -1.719}
{"smiles": "Cc1c(C(=O)N2CCN(C)CC2)n(C)c2ccc(Cl)cc12", "ClpP1P2": 0.04194, "MtTrpRS": -0.6159, "PfKRS1": 1.62}
{"smiles": "c1cn(CC2CC2)c(C2CCN(CCC3CCOC3)CC2)n1", "stereo": "stereo not shown", "ClpP1P2": 13.33, "MtTrpRS": -0.1282, "PfKRS1": 0.8228}
{"smiles": "COc1ccc(S(=O)(=O)N2Cc3c(CN(C)C)nn(C)c3C2)cc1", "ClpP1P2": -2.292, "MtTrpRS": 1.514, "PfKRS1": 1.923}
{"smiles": "Cc1nc(CN2CCC3(CCCN(C(=O)c4cnccn4)C3)C2)cs1", "stereo": "stereo not shown", "ClpP1P2": -12.21, "MtTrpRS": -5.383, "PfKRS1": 3.834}
{"smiles": "c1cc(COc2ccc(CNC3CCc4ncnn4C3)cc2)ccn1", "stereo": "stereo not shown", "ClpP1P2": -17.69, "MtTrpRS": -7.353, "PfKRS1": -2.148}
{"smiles": "COc1ccc2c(c1)OCC(Cc1ccc(N)cn1)C2", "stereo": "stereo not shown", "ClpP1P2": -1.244, "MtTrpRS": 1.754, "PfKRS1": -1.793}
{"smiles": "CC(=O)N1CCC(c2ncc(C(=O)Nc3ccc(F)cc3)c(C)n2)CC1", "ClpP1P2": -13.67, "MtTrpRS": 12.86, "PfKRS1": -0.8311}
{"smiles": "CCNC(=O)C1CCN(Cn2nc(-c3ccccc3)oc2=O)CC1", "ClpP1P2": 10.87, "MtTrpRS": 0.4295, "PfKRS1": 10.19}
{"smiles": "O=C(NC1CCC(C(=O)N2CCSCC2)CC1)N1CCOCC1", "stereo": "stereo not shown", "ClpP1P2": -5.729, "MtTrpRS": 3.15, "PfKRS1": 1.8}
{"smiles": "CCn1ccnc1CN1CCCN(C(=O)c2cc(Cl)c[nH]2)CC1", "ClpP1P2": 3.51, "MtTrpRS": 2.747, "PfKRS1": 3.165}
{"smiles": "Cn1cc(Br)cc(NC(=O)CC(C)(C)C)c1=O", "ClpP1P2": -6.773, "MtTrpRS": -4.924, "PfKRS1": 17.4}
{"smiles": "Cc1cc(CN2CCN(CC(O)C(C)(C)C)CC2)no1", "stereo": "stereo not shown", "ClpP1P2": -5.158, "MtTrpRS": 2.282, "PfKRS1": 3.543}
{"smiles": "CC(NCC1(N(C)C)CCOCC1)c1ccc(Cl)cc1", "stereo": "stereo not shown", "ClpP1P2": -4.797, "MtTrpRS": 1.223, "PfKRS1": 1.326}
{"smiles": "CC(C)(C(=O)N1CCCC(OCc2cccnc2)C1)n1cccc1", "stereo": "stereo not shown", "ClpP1P2": -6.862, "MtTrpRS": 2.647, "PfKRS1": 6.869}
{"smiles": "O=C(C1CC(=O)N(C2CCCC2)C1)N1CCN(CCn2cccc2)CC1", "stereo": "stereo not shown", "ClpP1P2": -20.33, "MtTrpRS": 3.197, "PfKRS1": 3.115}
{"smiles": "COc1ccc2c(c1)C(=O)NC1(CC2)CCN(Cc2ccncc2)C1", "stereo": "stereo not shown", "ClpP1P2": -20.3, "MtTrpRS": -3.179, "PfKRS1": -0.5976}
{"smiles": "CC(O)CN(C(=O)NC1CC1)C(C)C", "stereo": "stereo not shown", "ClpP1P2": 9.914, "MtTrpRS": -3.479, "PfKRS1": -4.147}
{"smiles": "FC(F)(F)c1cccc(OC2CCN(Cc3c[nH]cn3)CC2)c1", "ClpP1P2": 9.593, "MtTrpRS": -1.497, "PfKRS1": 2.07}
{"smiles": "CCOc1ccc(NC(=O)NCCS(=O)(=O)CC)cc1C", "ClpP1P2": -0.4877, "MtTrpRS": -0.9202, "PfKRS1": 4.473}
{"smiles": "Cc1noc(-c2ccnc(Oc3ccc(CN4CCCC4)cc3C)c2)n1", "ClpP1P2": -6.304, "MtTrpRS": 4.026, "PfKRS1": -0.522}
{"smiles": "CN1Cc2ccccc2CC2(CCN(C(=O)N3CCOCC3)CC2)C1=O", "ClpP1P2": -11.48, "PfKRS1": 1.232}
{"smiles": "Cc1nc(CN2CC[C@H](OCC3CC3)[C@@H]2Cc2cccnc2)cs1", "ClpP1P2": -13.88, "MtTrpRS": -4.991, "PfKRS1": 0.8797}
{"smiles": "CC(NC(=O)CCCN(C)C)c1cn(-c2ccccc2)nn1", "stereo": "stereo not shown", "ClpP1P2": 9.226, "MtTrpRS": -4.534, "PfKRS1": -0.778}
{"smiles": "CCc1noc(CN2CCCN(C(N)=O)CC2)n1", "ClpP1P2": -10.56, "MtTrpRS": 4.642, "PfKRS1": 7.383}
{"smiles": "O=C(c1ccc(NCc2ccco2)nc1)N1CCc2ccccc21", "ClpP1P2": -3.684, "MtTrpRS": -4.61, "PfKRS1": 3.722}
{"smiles": "NC(=O)N1CCC(NCc2cc(Br)ccc2Cl)CC1", "ClpP1P2": -16.44, "MtTrpRS": -1.882, "PfKRS1": 4.738}

The last 2 entries again:

SMILES,ClpP1P2,MtTrpRS,PfKRS1
O=C(c1ccc(NCc2ccco2)nc1)N1CCc2ccccc21,-3.684,-4.61,3.722
NC(=O)N1CCC(NCc2cc(Br)ccc2Cl)CC1,-16.44,-1.882,4.738

The values are deposited in ChEMBL (CHEMBL3988442, “University of Dundee, Small-Polar-MMV Screening Library” (2021)).